PubChem BioAssay AID256 (DTP/NCI, 2004)
The list does not hold the whole screen: it is rich in T/C values a quarter to a half above the control, in often repeated tests (any T/C) and in doses without a T/C. Further doses and runs are listed elsewhere. T/C gives the treated animals as a percentage of the vehicle group. Some doses have a count of surviving animals in place of a T/C: the source files T/C as zero there, which appears to mark a toxic dose or a test without result, not a measured value. Some doses without a T/C left all or most animals alive at the check, yet need not have been tolerated: survival well below the control is almost never listed, so the zero probably covers shortened survival too. Counts of survivors are from the toxicity check (mostly the fifth day) where no day follows; animals may have died later. Schedules are NCI's codes, taken here to give the interval after Q, in days (D) or hours (H), and the number of doses after X. Some entries hold several experiments; their values stand side by side, smallest first. Some schedules carry Z or #; the key to these is not given. For survival time, this PubChem deposit counts one and a half times the control or more as active, and values a quarter to a half above the control carry no call in these data; other NCI protocols may use other cut-offs. Additions like (4×) stand for listed records that agree. Some T/C values are followed by the survivors on the day toxicity was checked, most often the fifth; where none is given, no animal had died by that day.

Test system: CD2F1 mice, L1210 leukemia ip, survival T/C
Assay: NCI In Vivo Anticancer Drug Screen. Data for tumor model L1210 Leukemia (intraperitoneal) in CD2F1 (CDF1) mice
Conditions: higher T/C = longer survival
In short: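 Each value reflects a quotient of treated over vehicle control outcomes in mice with a transplanted tumor.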

[1] = T/C endpoint: mean survival time, dose: 400.0 mg/kg/injection, schedule: Q01DX001 (ip), vehicle: saline with Tween-80
[2] = T/C endpoint: mean survival time, dose: 400.0 mg/kg/injection, schedule: Q01DX009 (ip), vehicle: saline with Tween-80
[3] = T/C endpoint: mean survival time, dose: 200.0 mg/kg/injection, schedule: Q01DX009 (ip), vehicle: saline
[4] = T/C endpoint: mean survival time, dose: 400.0 mg/kg/injection, schedule: Q04DX003 (ip), vehicle: saline with Tween-80
[5] = T/C endpoint: mean survival time, dose: 250.0 micrograms/kg/injection, schedule: Q01DX005 (ip), vehicle: sodium bicarbonate
[6] = T/C endpoint: mean survival time, dose: 75.0 mg/kg/injection, schedule: Q01DX001 (ip), vehicle: saline
[7] = T/C endpoint: mean survival time, dose: 150.0 mg/kg/injection, schedule: Q01DX001 (ip), vehicle: saline
[8] = T/C endpoint: mean survival time, dose: 300.0 mg/kg/injection, schedule: Q01DX001 (ip), vehicle: saline
[9] = T/C endpoint: mean survival time, dose: 200.0 mg/kg/injection, schedule: Q04DX003 (ip), vehicle: saline with Tween-80

C[n+]1c(-c2ccc(/C=N/NC(=O)c3ccc(C(=O)N/N=C/c4ccc(-c5cn6ccccc6[n+]5C)cc4)cc3)cc2)cn2ccccc21
T/C (T/C endpoint: median survival time, dose: 50.0 mg/kg/injection, schedule: Q01DX005 (ip), vehicle: saline with Tween-80): 142 % of control | T/C (T/C endpoint: median survival time, dose: 555.55 mg/kg/injection, schedule: Q01DX005 (ip), vehicle: saline with Tween-80): 141 % of control | T/C (T/C endpoint: median survival time, dose: 925.91 mg/kg/injection, schedule: Q01DX005 (ip), vehicle: saline with Tween-80): 137 % of control

O=C1C(O)=Cc2coc(=O)c3ccc(-c4ccccc4)c1c23
survivor count (T/C endpoint: mean survival time, dose: 200.0 mg/kg/injection, schedule: Q01DX001 (ip), vehicle: saline with Tween-80): 2 of 6 | survivor count [1]: 1 of 6

CC(c1ccccc1)N1CCCOP1(=O)N(CCCl)CCCl (stereo unspecified)
survivor count (T/C endpoint: mean survival time, dose: 500.0 mg/kg/injection, schedule: Q01DX001 (ip), vehicle: other): 2 of 6

COc1cc(Cl)ccc1C
survivor count [2]: 5 of 6

CCCN(CCC)CN(CCC)CCC
survivor count [3]: 1 of 3

COc1ccc(OC)c(C2(O)C=C(Cl)C(=O)C=C2Cl)c1 (stereo unspecified)
survivor count [1]: 1 of 3

COc1ccc(C(Br)C(C)Br)cc1 (stereo unspecified)
survivor count [4]: 2 of 6

O=C(CCl)n1nc(Cl)c2ccc([N+](=O)[O-])cc21
survivor count (T/C endpoint: mean survival time, dose: 400.0 mg/kg/injection, schedule: Q01DX001 (ip), vehicle: saline): 2 of 4

O=S(O)C(=NCc1ccccc1)NCc1ccccc1
survivor count [2]: 0 of 6

CN(C)CCNc1ccc(CO)c2sc3ccc(O)cc3c(=O)c12
T/C (T/C endpoint: median survival time, dose: 25.0 mg/kg/injection, schedule: Q01DX005 (ip), vehicle: saline with Tween-80): 147 % of control | T/C (T/C endpoint: median survival time, dose: 100.0 mg/kg/injection, schedule: Q01DX005 (ip), vehicle: saline with Tween-80): 135 % of control

Nc1nc(N)c2nc(COc3ccc(C(=O)NC(CCC(=O)O)C(=O)O)cc3)ccc2n1 (stereo unspecified)
survivor count (T/C endpoint: mean survival time, dose: 0.5 mg/kg/injection, schedule: Q01DX005 (ip), vehicle: sodium bicarbonate): 5 of 6 | survivor count (T/C endpoint: mean survival time, dose: 1.0 mg/kg/injection, schedule: Q01DX005 (ip), vehicle: sodium bicarbonate): 3 of 6 | survivor count (T/C endpoint: mean survival time, dose: 2.0 mg/kg/injection, schedule: Q01DX005 (ip), vehicle: sodium bicarbonate): 5 of 6 | survivor count (T/C endpoint: mean survival time, dose: 4.0 mg/kg/injection, schedule: Q01DX005 (ip), vehicle: sodium bicarbonate): 2 of 6 | survivor count (T/C endpoint: mean survival time, dose: 8.0 mg/kg/injection, schedule: Q01DX005 (ip), vehicle: sodium bicarbonate): 2 of 6 | survivor count (T/C endpoint: mean survival time, dose: 16.0 mg/kg/injection, schedule: Q01DX005 (ip), vehicle: sodium bicarbonate): 2 of 6 | T/C (T/C endpoint: mean survival time, dose: 62.5 micrograms/kg/injection, schedule: Q01DX005 (ip), vehicle: sodium bicarbonate): 132 % of control | T/C (T/C endpoint: mean survival time, dose: 125.0 micrograms/kg/injection, schedule: Q01DX005 (ip), vehicle: sodium bicarbonate): 130 % of control (2×) | T/C [5]: 145 % of control | survivor count [5]: 6 of 6 | survivor count (T/C endpoint: mean survival time, dose: 500.0 micrograms/kg/injection, schedule: Q01DX005 (ip), vehicle: sodium bicarbonate): 6 of 6

CO[C@H]1C[C@H](O[C@H]2CC[C@]3(C=O)[C@H]4CC[C@]5(C)[C@@H](C6=CC(=O)OC6)CC[C@]5(O)[C@@H]4CC[C@]3(O)C2)O[C@H](C)[C@H]1O[C@@H]1O[C@H](CO)[C@@H](O)[C@H](O)[C@H]1O
survivor count (T/C endpoint: mean survival time, dose: 2.0 mg/kg/injection, schedule: Q01DX009 (ip), vehicle: saline): 2 of 6

CS(=O)(=O)OCCN(CCOS(C)(=O)=O)c1ccc(C=Nc2ccc(-c3csc(COc4ccccc4)n3)cc2)cc1
T/C (T/C endpoint: mean survival time, dose: 12.5 mg/kg/injection, schedule: Q01DX008 (ip), vehicle: Klucel (hydroxypropylcellulose) (HPC)): 125 % of control | T/C (T/C endpoint: mean survival time, dose: 25.0 mg/kg/injection, schedule: Q01DX008 (ip), vehicle: Klucel (hydroxypropylcellulose) (HPC)): 135 % of control | T/C (T/C endpoint: mean survival time, dose: 25.0 mg/kg/injection, schedule: Q01DX009 (ip), vehicle: Klucel (hydroxypropylcellulose) (HPC)): 125 % of control | T/C (T/C endpoint: mean survival time, dose: 50.0 mg/kg/injection, schedule: Q01DX008 (ip), vehicle: Klucel (hydroxypropylcellulose) (HPC)): 135 % of control | T/C (T/C endpoint: mean survival time, dose: 50.0 mg/kg/injection, schedule: Q01DX009 (ip), vehicle: Klucel (hydroxypropylcellulose) (HPC)): 143 % of control | T/C (T/C endpoint: mean survival time, dose: 100.0 mg/kg/injection, schedule: Q01DX008 (ip), vehicle: Klucel (hydroxypropylcellulose) (HPC)): 137 % of control | T/C (T/C endpoint: mean survival time, dose: 100.0 mg/kg/injection, schedule: Q01DX009 (ip), vehicle: Klucel (hydroxypropylcellulose) (HPC)): 142 % of control | T/C (T/C endpoint: mean survival time, dose: 200.0 mg/kg/injection, schedule: Q01DX008 (ip), vehicle: Klucel (hydroxypropylcellulose) (HPC)): 133 % of control | T/C (T/C endpoint: mean survival time, dose: 200.0 mg/kg/injection, schedule: Q01DX009 (ip), vehicle: Klucel (hydroxypropylcellulose) (HPC)): 131 % of control [5 of 6 alive]

CCCCCCCCCC(=O)NCC[N+](C)(C)C
survivor count [6]: 3 of 6 | survivor count [7]: 0 of 6 | survivor count [8]: 0 of 6

COc1ccc(OCCOC(=O)Nc2cc(Cl)c(OC)cc2OC)cc1
survivor count (T/C endpoint: mean survival time, dose: 50.0 mg/kg/injection, schedule: Q01DX009 (ip), vehicle: saline with Tween-80): 3 of 3

[O-][n+]1cc(N=Nc2ccc(Cl)cc2)nn1-c1ccc(Cl)cc1
survivor count (T/C endpoint: mean survival time, dose: 100.0 mg/kg/injection, schedule: Q01DX001 (ip), vehicle: saline): 6 of 6 | survivor count (T/C endpoint: mean survival time, dose: 200.0 mg/kg/injection, schedule: Q01DX001 (ip), vehicle: saline): 6 of 6

Cc1ccc(-c2nc(SCc3ccc(Cl)cc3)[nH]c(=O)c2CCO)cc1
survivor count (T/C endpoint: mean survival time, dose: 400.0 mg/kg/injection, schedule: Q04DX003 (ip), vehicle: Klucel (hydroxypropylcellulose) (HPC)): 6 of 6

N#CC(=C=N)N=C(F)C(C#N)=C(C#N)C#N
survivor count [6]: 0 of 6 | survivor count [7]: 0 of 6 | survivor count [8]: 0 of 6

O=C(O)/C=C(/C(=O)O)c1cccn1Cc1ccccc1
survivor count (T/C endpoint: mean survival time, dose: 200.0 mg/kg/injection, schedule: Q04DX002 (ip), vehicle: saline with Tween-80): 1 of 3 | survivor count (T/C endpoint: mean survival time, dose: 400.0 mg/kg/injection, schedule: Q04DX002 (ip), vehicle: saline with Tween-80): 0 of 3

CN1CCN(c2ccccc2N)CC1
survivor count (T/C endpoint: mean survival time, dose: 100.0 mg/kg/injection, schedule: Q04DX003 (ip), vehicle: saline with Tween-80): 0 of 6 | survivor count [9]: 0 of 6 | survivor count [4]: 0 of 6

CNC(=O)ON(C(C)=O)C(=O)NC
survivor count (T/C endpoint: mean survival time, dose: 100.0 mg/kg/injection, schedule: Q01DX009 (ip), vehicle: saline): 2 of 6 and 3 of 6 | survivor count [3]: 0 of 6 | survivor count (T/C endpoint: mean survival time, dose: 400.0 mg/kg/injection, schedule: Q01DX009 (ip), vehicle: saline): 0 of 6

CC(=O)ON1C(=O)C2C3C=CC(O3)C2C1=O (stereo unspecified)
survivor count (T/C endpoint: mean survival time, dose: 100.0 mg/kg/injection, schedule: Q01DX009 (ip), vehicle: water): 3 of 6 | survivor count (T/C endpoint: mean survival time, dose: 200.0 mg/kg/injection, schedule: Q01DX009 (ip), vehicle: water): 1 of 6

CC(C)c1ccc2c(c1)CC[C@H]1[C@](C)(C#N)CCC[C@]21C
survivor count [2]: 5 of 6

CN=C(N)c1ccc(N=C(N)c2ccc(NC(=O)c3ccc(C(N)=NC)cc3)cc2)cc1
survivor count (T/C endpoint: mean survival time, dose: 50.0 mg/kg/injection, schedule: Q01DX Z (ip), vehicle: water): 0 of 6 | survivor count (T/C endpoint: mean survival time, dose: 75.0 mg/kg/injection, schedule: Q01DX Z (ip), vehicle: water): 0 of 6 | survivor count (T/C endpoint: mean survival time, dose: 100.0 mg/kg/injection, schedule: Q01DX Z (ip), vehicle: water): 0 of 6

Cc1[nH]c(C(=O)NN)c(C)c1C(=O)NN
survivor count [9]: 6 of 6 | survivor count [4]: 3 of 6

CC(C)CC(CC(C)C)C(=O)C1C2CCC(O2)C1C(=O)C(CC(C)C)CC(C)C (stereo unspecified)
survivor count (T/C endpoint: mean survival time, dose: 50.0 mg/kg/injection, schedule: Q04DX002 (ip), vehicle: saline with Tween-80): 3 of 3 | survivor count (T/C endpoint: mean survival time, dose: 100.0 mg/kg/injection, schedule: Q04DX002 (ip), vehicle: saline with Tween-80): 3 of 3

CC1C2CCC(C2)C1OC(=O)c1ccccc1C(=O)O (stereo unspecified) (tested in a mixture with another compound)
survivor count (T/C endpoint: mean survival time, dose: 200.0 mg/kg/injection, schedule: Q01DX009 (ip), vehicle: saline with Tween-80): 3 of 6 | survivor count [4]: 1 of 6

CCCCCCCCN(C)C
survivor count (T/C endpoint: mean survival time, dose: 100.0 mg/kg/injection, schedule: Q01DX009 (ip), vehicle: saline with Tween-80): 4 of 6
